Experimental data as given in article PMC7819943, “Rice protein-binding microarrays: a tool to detect cis-acting elements near promoter regions in rice”.
This is one part of the list.

By UniProt entry, the sequences of proteins in these tests, tags left out.
UniProt Q0JBA9, entry or part of it: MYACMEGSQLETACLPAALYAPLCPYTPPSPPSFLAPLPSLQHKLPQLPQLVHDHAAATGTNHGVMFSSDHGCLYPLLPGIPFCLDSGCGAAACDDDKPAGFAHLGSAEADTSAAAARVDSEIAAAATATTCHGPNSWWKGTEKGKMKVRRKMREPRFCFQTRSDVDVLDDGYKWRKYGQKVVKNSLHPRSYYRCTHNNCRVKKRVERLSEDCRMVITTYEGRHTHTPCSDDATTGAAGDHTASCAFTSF

target: OsWRKY34 (Oryza sativa, UniProt Q0JBA9 1-250); test: protein-binding microarray (RPBM); PBS, 2% BSA, 51.3 ng/ul salmon testes DNA, 50 uM zinc acetate, 200 nM TF, 25 C, 1 h; high values mean tight binding; settings: protein: recombinant; tags: N-terminal polyhistidine and DsRed monomer fusion (pET32a); label: CyDye5-dUTP incorporated in the synthesized complementary strand; 3' TTTTT single-stranded linker to array surface; dsDNA, one strand shown
How it was run: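 Per-feature fluorescence intensity (arbitrary units), read on an Axon 4000B scanner, is the binding signal. Transcription factors carrying an N-terminal polyhistidine tag and DsRed fusion were expressed in E. coli BL21-CodonPlus and purified on Ni–NTA. A custom Agilent array, made double-stranded by primer extension with Cy5-dUTP and blocked with 2% BSA, was incubated with 200 nM protein in PBS, 2% BSA, salmon testes DNA and 50 µM zinc acetate at 25 °C for 1 h and then washed.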

| Sequence | binding signal |
| --- | --- |
| TCTCTTGTGCTTTCAGAATTTTTCTTGTGTGTTTTAGCCACGGAGTCACCTAGTGCAG | 9170 fluorescence intensity (a.u.) |
| TGCCATTTGTATGTATGTATTTCTCTCTGATAACCAAAGTCGGAGTCACCTAGTGCAG | 9700 fluorescence intensity (a.u.) |
| GATTCTACTGCCCCGTTGACTAATTGTCTTCGTCAGGATCCGGAGTCACCTAGTGCAG | 17900 fluorescence intensity (a.u.) |
| ATTGTTCAGCTGTTTTTTTTTTGTGTGGGTTTCTAGATTTCGGAGTCACCTAGTGCAG | 12200 fluorescence intensity (a.u.) |
| CGAAGTATACTTTACCTTTTTCTTTTTAGGTCCTTTATATCGGAGTCACCTAGTGCAG | 9260 fluorescence intensity (a.u.) |
| AAAAATACCAGTCCAATCCAAACCCTTTTTTCTTTTTTTTCGGAGTCACCTAGTGCAG | 9160 fluorescence intensity (a.u.) |
| CTATAAATATTTGGGTGGGGTTACTGAATTTTAAAGAACGCGGAGTCACCTAGTGCAG | 13700 fluorescence intensity (a.u.) |
| CGCCCGCCGCTCGGCCGCGCCCATCTGCTCTCTGCCAGCCCGGAGTCACCTAGTGCAG | 8550 fluorescence intensity (a.u.) |
| TGTCCTCACACCACCTCGTCCCTATCCATGATCGCGTCCCCGGAGTCACCTAGTGCAG | 8090 fluorescence intensity (a.u.) |
| TACGACTACTCACTTTTTTTCTCGACCACACATATATGTTCGGAGTCACCTAGTGCAG | 10300 fluorescence intensity (a.u.) |
| CCACCTCCACCTTGACCTCCTCCTTCTTCAGCCCCGGCACCGGAGTCACCTAGTGCAG | 8600 fluorescence intensity (a.u.) |
| GCTCTGACGCACGTGACCTCTCTTTCTCCTCGAGCGCAGCCGGAGTCACCTAGTGCAG | 10200 fluorescence intensity (a.u.) |
| CGTCGTCCCTATAATTGCTCGCCGCCATCGTTCCTGTTCGCGGAGTCACCTAGTGCAG | 8580 fluorescence intensity (a.u.) |
| GATCTTCGGCCGAGTTTAGTTCCAAACTTTTTCTTCAAACCGGAGTCACCTAGTGCAG | 8660 fluorescence intensity (a.u.) |
| TCTACACCTCATTTTCCGCTTGCATCTTGCTCATTCAGATCGGAGTCACCTAGTGCAG | 9920 fluorescence intensity (a.u.) |
| GGAGCCGCCGCGGCCGTCCTCCTTCTTCCCCACCGCCGCGCGGAGTCACCTAGTGCAG | 8740 fluorescence intensity (a.u.) |
| ACTGCCCTTTTGCTATCAGTTTCTGGCAAGCACTTCATATCGGAGTCACCTAGTGCAG | 10500 fluorescence intensity (a.u.) |
| CCCCGATCCCCACGACGCGCCGCCGCCCCGCACCGAGATGCGGAGTCACCTAGTGCAG | 8840 fluorescence intensity (a.u.) |
| TTAACCACCGCCGCGTCCCATTCCCAAGTCCCACCACCACCGGAGTCACCTAGTGCAG | 9920 fluorescence intensity (a.u.) |
| CGCATATTTGATCTTTTCATGTTATACTGTGTAGTTTACACGGAGTCACCTAGTGCAG | 12000 fluorescence intensity (a.u.) |
| TTACCACCTCCACCTCGCGCACTCAGTCTGTACTACCTGTCGGAGTCACCTAGTGCAG | 8720 fluorescence intensity (a.u.) |
| TGGGTAATTTCGTGTGGATGGTGGCGGCGGCGGCGGCGGCCGGAGTCACCTAGTGCAG | 12800 fluorescence intensity (a.u.) |
| TATATTTGACCATTTCCTATCATTTAATTCATTGTTATATCGGAGTCACCTAGTGCAG | 8530 fluorescence intensity (a.u.) |
| GATTTCATAATGAGATATACTCCCTCCGTTTCAGGTTATACGGAGTCACCTAGTGCAG | 8260 fluorescence intensity (a.u.) |
| CCTGCTGACCAACCTACGCTAGCTATCTTCCTCTTGTCGTCGGAGTCACCTAGTGCAG | 11500 fluorescence intensity (a.u.) |
| CTCTCTCTTCCGTTTGCTATATATTGGCACTTAATTAACACGGAGTCACCTAGTGCAG | 8680 fluorescence intensity (a.u.) |
| TCCTCGCGCTCCCAGCCTTTCTTTGCACACGCCACACACCCGGAGTCACCTAGTGCAG | 8050 fluorescence intensity (a.u.) |

15 entries from above in a different format:
Sequence	binding signal
CTATAAATATTTGGGTGGGGTTACTGAATTTTAAAGAACGCGGAGTCACCTAGTGCAG	13700 fluorescence intensity (a.u.)
CGCCCGCCGCTCGGCCGCGCCCATCTGCTCTCTGCCAGCCCGGAGTCACCTAGTGCAG	8550 fluorescence intensity (a.u.)
TGTCCTCACACCACCTCGTCCCTATCCATGATCGCGTCCCCGGAGTCACCTAGTGCAG	8090 fluorescence intensity (a.u.)
TACGACTACTCACTTTTTTTCTCGACCACACATATATGTTCGGAGTCACCTAGTGCAG	10300 fluorescence intensity (a.u.)
CCACCTCCACCTTGACCTCCTCCTTCTTCAGCCCCGGCACCGGAGTCACCTAGTGCAG	8600 fluorescence intensity (a.u.)
GCTCTGACGCACGTGACCTCTCTTTCTCCTCGAGCGCAGCCGGAGTCACCTAGTGCAG	10200 fluorescence intensity (a.u.)
CGTCGTCCCTATAATTGCTCGCCGCCATCGTTCCTGTTCGCGGAGTCACCTAGTGCAG	8580 fluorescence intensity (a.u.)
GATCTTCGGCCGAGTTTAGTTCCAAACTTTTTCTTCAAACCGGAGTCACCTAGTGCAG	8660 fluorescence intensity (a.u.)
TCTACACCTCATTTTCCGCTTGCATCTTGCTCATTCAGATCGGAGTCACCTAGTGCAG	9920 fluorescence intensity (a.u.)
GGAGCCGCCGCGGCCGTCCTCCTTCTTCCCCACCGCCGCGCGGAGTCACCTAGTGCAG	8740 fluorescence intensity (a.u.)
ACTGCCCTTTTGCTATCAGTTTCTGGCAAGCACTTCATATCGGAGTCACCTAGTGCAG	10500 fluorescence intensity (a.u.)
CCCCGATCCCCACGACGCGCCGCCGCCCCGCACCGAGATGCGGAGTCACCTAGTGCAG	8840 fluorescence intensity (a.u.)
TTAACCACCGCCGCGTCCCATTCCCAAGTCCCACCACCACCGGAGTCACCTAGTGCAG	9920 fluorescence intensity (a.u.)
CGCATATTTGATCTTTTCATGTTATACTGTGTAGTTTACACGGAGTCACCTAGTGCAG	12000 fluorescence intensity (a.u.)
TTACCACCTCCACCTCGCGCACTCAGTCTGTACTACCTGTCGGAGTCACCTAGTGCAG	8720 fluorescence intensity (a.u.)

More entries follow.

| Sequence | binding signal |
| --- | --- |
| GCCGCCTACTCCAACCACAGCCTGTGTGACAGCCCGTGGACGGAGTCACCTAGTGCAG | 8420 fluorescence intensity (a.u.) |
| ACCCTTCTGTTGTTCTTAGTCCCCTCTGCTGCAAGAAGGCCGGAGTCACCTAGTGCAG | 8570 fluorescence intensity (a.u.) |
| GGGTTGGTGGTGATTTTTTTTTGTTCGCCCAAAATATTTTCGGAGTCACCTAGTGCAG | 12800 fluorescence intensity (a.u.) |
| TCTCTCATCCGATTCGTATGTTTTTTCCTGCGGTCCAATCCGGAGTCACCTAGTGCAG | 9580 fluorescence intensity (a.u.) |
| GTTGCCGTTATCTTGGACATGTCATTGTCATCCTATAGTCCGGAGTCACCTAGTGCAG | 12400 fluorescence intensity (a.u.) |
| ACCGGAACCATGTCCATTCTATATCAACAAAGCATCTACCCGGAGTCACCTAGTGCAG | 8410 fluorescence intensity (a.u.) |
| GACGCGAAATCCCAATTTTCCCCACCAGCCGCCGCCACCTCGGAGTCACCTAGTGCAG | 10800 fluorescence intensity (a.u.) |
| GGGTCAGGGTGGGCGTGGATTGATATTTTAATACGAATAACGGAGTCACCTAGTGCAG | 14300 fluorescence intensity (a.u.) |
| TTAGTAGTGGGCTATACTATTAAATTTAATTTGCTCTAATCGGAGTCACCTAGTGCAG | 8250 fluorescence intensity (a.u.) |
| CTCGCCCTCGACACGCTGGAAGTTTGTGTACGCGTCATTCCGGAGTCACCTAGTGCAG | 9080 fluorescence intensity (a.u.) |
| AATTTTGCTGGCCTTGCTGCCTCTCTTGTGCTTACTACTTCGGAGTCACCTAGTGCAG | 10100 fluorescence intensity (a.u.) |
| CATAAATTATTCCTGTCTTGTAGTACATCCATCCATCCATCGGAGTCACCTAGTGCAG | 9450 fluorescence intensity (a.u.) |
| ACGAACGGTCAAACATGTGCTAAAAAGTCAACGGTGTCAACGGAGTCACCTAGTGCAG | 15900 fluorescence intensity (a.u.) |
| GCATTTTACACGTTGGCTTGGGCGCGCCCACCGTACTGTACGGAGTCACCTAGTGCAG | 8830 fluorescence intensity (a.u.) |
| TGTCTCATGTCAGGAGGCTCCTGTGTTGCCCAAGTCTTTACGGAGTCACCTAGTGCAG | 11700 fluorescence intensity (a.u.) |
| CCCACTGGCGACTCTTCCTCACCGCCACCAACGCCGACGACGGAGTCACCTAGTGCAG | 9430 fluorescence intensity (a.u.) |
| GGGGTAATTTCTCTGTGTTTTGAGTTGAGGGAGATAATTCCGGAGTCACCTAGTGCAG | 16900 fluorescence intensity (a.u.) |
| AAAGTGAATGTTGGAGGTTTGTGATTGGTTGGGAGGAGAACGGAGTCACCTAGTGCAG | 8200 fluorescence intensity (a.u.) |
| CTCTCACAACCAGTCAACCACAACCATCCGTTCGATTGATCGGAGTCACCTAGTGCAG | 8320 fluorescence intensity (a.u.) |
| TTTATACATATGTGTTTATCATACCTCACGTGTCGTATATCGGAGTCACCTAGTGCAG | 8040 fluorescence intensity (a.u.) |
| ATGTCCTCCTCTCGTTGACATCTTGACTTTCGTTGCCACCCGGAGTCACCTAGTGCAG | 8790 fluorescence intensity (a.u.) |
| CGCCCACCGCCGCCGCCGCCGCCGCCCATCCTCCTTCCTCCGGAGTCACCTAGTGCAG | 9680 fluorescence intensity (a.u.) |
| TTTACATATCTATCTTTTTTTTTTGTTTTTTCTCGCTTTTCGGAGTCACCTAGTGCAG | 8460 fluorescence intensity (a.u.) |
| CGGCGCTCTCCTCCACCTCCGCGGCACATCCATCTTTTTCCGGAGTCACCTAGTGCAG | 9780 fluorescence intensity (a.u.) |
| ATCTAACTTCACTTTTTCAAGTTTGCATTTGATCCTATTTCGGAGTCACCTAGTGCAG | 8660 fluorescence intensity (a.u.) |
| CCCTAGAGGAGGGAAGGAGGAAGGGGATGGACAAAGTAGACGGAGTCACCTAGTGCAG | 8960 fluorescence intensity (a.u.) |
| GGAGTACAACAGCAAAGCTTCCAACACCGTCCGATTCTCACGGAGTCACCTAGTGCAG | 8620 fluorescence intensity (a.u.) |
